The text below walks through data of the supplement of paper PMC6411743.

The chains behind the UniProt entries cited, without tags or fusion partners. Where a name states a change or a piece, a line headed by the entry shows the natural chain unless it says otherwise.
UniProt Q14651: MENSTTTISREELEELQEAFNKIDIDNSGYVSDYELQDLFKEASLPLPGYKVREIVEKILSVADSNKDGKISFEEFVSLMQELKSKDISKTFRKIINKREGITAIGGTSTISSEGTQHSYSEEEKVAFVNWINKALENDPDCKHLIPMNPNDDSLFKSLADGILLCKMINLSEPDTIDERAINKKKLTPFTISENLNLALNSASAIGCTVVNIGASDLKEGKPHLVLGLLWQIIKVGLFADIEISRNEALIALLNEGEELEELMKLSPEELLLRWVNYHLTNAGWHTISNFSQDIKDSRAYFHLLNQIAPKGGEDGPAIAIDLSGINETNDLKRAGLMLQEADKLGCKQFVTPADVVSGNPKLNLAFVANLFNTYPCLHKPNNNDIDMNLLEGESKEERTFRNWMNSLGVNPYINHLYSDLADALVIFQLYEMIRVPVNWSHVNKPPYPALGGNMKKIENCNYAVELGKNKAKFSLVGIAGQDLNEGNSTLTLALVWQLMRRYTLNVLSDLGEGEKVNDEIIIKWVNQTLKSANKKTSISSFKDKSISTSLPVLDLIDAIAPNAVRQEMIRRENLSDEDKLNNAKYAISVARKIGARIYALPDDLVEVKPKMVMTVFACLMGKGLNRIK
UniProt Q3V6T2: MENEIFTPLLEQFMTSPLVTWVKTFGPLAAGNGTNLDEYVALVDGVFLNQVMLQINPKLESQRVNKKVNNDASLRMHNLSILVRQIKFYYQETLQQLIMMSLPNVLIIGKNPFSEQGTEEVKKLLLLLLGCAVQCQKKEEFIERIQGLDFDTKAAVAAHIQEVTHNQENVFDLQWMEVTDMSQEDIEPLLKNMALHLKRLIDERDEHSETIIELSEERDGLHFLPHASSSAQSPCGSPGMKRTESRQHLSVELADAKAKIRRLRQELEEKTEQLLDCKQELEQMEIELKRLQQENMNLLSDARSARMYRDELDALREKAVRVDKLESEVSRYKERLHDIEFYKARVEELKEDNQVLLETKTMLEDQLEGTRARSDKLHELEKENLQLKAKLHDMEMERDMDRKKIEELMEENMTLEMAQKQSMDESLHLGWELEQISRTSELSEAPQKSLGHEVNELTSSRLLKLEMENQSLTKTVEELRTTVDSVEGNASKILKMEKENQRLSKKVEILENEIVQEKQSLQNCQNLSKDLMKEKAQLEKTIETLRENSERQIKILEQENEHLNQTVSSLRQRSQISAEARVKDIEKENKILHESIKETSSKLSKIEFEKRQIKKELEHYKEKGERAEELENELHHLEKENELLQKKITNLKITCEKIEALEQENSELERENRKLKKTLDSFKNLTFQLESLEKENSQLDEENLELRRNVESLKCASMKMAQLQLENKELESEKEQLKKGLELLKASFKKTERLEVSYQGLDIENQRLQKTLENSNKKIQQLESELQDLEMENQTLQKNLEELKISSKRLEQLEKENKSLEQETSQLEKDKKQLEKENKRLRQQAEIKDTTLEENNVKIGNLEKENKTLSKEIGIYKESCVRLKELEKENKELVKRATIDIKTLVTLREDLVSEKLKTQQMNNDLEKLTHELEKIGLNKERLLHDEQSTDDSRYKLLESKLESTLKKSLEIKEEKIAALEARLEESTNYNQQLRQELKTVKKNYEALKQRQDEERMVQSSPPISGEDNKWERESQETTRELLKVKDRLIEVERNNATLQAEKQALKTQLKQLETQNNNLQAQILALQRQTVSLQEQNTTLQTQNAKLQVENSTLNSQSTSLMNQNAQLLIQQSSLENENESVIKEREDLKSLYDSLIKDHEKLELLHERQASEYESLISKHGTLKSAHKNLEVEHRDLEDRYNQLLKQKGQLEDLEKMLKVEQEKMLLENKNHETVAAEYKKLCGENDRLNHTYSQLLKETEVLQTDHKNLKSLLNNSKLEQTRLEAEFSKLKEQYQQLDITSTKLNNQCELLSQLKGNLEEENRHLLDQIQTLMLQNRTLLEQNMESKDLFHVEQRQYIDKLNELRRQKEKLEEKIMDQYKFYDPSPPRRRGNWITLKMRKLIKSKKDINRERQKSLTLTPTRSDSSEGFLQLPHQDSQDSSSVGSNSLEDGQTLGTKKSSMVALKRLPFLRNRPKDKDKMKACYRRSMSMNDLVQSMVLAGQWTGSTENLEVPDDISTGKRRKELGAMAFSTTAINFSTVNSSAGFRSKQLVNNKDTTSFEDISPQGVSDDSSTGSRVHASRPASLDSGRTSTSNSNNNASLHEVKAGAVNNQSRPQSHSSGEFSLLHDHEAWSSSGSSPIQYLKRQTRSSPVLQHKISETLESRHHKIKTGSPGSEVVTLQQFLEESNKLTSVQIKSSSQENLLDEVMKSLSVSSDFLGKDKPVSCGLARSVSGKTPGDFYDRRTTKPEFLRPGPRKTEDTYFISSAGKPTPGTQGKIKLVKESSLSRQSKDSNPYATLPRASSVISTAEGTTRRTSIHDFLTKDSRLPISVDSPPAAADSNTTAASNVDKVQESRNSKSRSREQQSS
UniProt Q16566: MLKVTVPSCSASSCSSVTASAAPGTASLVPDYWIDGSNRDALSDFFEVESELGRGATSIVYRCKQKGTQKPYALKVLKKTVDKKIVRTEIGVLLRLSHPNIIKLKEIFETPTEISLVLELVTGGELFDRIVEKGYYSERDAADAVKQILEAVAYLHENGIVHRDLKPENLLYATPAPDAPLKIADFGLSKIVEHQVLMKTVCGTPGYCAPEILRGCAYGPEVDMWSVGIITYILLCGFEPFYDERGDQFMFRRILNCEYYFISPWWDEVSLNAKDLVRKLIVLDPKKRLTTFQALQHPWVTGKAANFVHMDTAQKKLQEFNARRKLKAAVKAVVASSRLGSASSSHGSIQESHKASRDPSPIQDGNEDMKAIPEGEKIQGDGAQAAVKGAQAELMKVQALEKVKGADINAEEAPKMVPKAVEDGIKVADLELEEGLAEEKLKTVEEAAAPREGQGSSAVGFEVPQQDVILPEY
UniProt Q15059, whole entry, looked up: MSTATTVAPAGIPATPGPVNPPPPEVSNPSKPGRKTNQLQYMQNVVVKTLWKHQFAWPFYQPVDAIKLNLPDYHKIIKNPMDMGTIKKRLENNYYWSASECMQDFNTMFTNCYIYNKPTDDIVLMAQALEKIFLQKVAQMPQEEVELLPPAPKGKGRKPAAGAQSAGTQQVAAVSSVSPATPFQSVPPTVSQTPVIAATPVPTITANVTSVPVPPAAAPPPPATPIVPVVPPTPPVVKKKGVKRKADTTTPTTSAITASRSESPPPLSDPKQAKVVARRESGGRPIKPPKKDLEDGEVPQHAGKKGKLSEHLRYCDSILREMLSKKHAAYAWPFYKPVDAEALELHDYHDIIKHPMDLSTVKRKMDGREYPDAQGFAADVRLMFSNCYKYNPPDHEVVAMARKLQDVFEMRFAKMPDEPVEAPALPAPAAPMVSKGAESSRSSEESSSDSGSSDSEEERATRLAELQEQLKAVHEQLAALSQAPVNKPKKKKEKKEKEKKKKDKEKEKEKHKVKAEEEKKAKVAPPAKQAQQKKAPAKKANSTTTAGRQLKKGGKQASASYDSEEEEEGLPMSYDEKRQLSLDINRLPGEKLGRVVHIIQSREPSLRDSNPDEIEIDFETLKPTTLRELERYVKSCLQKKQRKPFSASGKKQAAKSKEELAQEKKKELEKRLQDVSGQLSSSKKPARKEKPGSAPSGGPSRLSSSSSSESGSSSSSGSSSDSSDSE
UniProt Q15459: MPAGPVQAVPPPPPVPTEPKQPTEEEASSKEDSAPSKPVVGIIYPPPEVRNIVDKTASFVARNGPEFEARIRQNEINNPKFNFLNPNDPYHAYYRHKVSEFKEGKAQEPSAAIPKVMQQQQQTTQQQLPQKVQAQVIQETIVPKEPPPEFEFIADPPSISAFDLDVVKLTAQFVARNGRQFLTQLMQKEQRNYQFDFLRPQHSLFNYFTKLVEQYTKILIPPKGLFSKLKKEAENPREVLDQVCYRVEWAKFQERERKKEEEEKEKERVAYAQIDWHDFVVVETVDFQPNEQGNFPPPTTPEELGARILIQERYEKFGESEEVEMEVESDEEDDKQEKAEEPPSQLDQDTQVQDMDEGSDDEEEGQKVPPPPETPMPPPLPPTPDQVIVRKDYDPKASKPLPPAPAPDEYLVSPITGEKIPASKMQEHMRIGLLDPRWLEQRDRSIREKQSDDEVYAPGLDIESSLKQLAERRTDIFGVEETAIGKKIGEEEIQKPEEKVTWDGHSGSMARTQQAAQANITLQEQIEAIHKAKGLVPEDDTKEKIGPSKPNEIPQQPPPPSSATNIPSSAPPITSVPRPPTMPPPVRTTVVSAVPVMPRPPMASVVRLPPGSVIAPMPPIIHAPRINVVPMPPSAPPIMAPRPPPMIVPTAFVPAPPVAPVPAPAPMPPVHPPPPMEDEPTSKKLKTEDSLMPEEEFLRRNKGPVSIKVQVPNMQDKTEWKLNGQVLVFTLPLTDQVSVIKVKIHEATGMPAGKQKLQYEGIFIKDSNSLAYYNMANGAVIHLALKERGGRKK
UniProt Q16740, whole entry: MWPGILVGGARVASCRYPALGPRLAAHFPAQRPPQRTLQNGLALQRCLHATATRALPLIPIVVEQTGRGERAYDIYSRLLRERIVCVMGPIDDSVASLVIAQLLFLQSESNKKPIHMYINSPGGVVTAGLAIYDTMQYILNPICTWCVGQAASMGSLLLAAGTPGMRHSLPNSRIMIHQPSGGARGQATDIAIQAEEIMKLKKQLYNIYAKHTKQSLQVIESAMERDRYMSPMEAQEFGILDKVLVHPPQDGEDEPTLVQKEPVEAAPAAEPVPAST
UniProt Q15121, whole entry: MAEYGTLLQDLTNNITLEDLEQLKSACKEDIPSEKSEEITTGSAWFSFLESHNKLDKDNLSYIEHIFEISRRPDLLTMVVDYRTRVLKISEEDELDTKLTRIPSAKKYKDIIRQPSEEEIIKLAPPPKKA
UniProt Q14247: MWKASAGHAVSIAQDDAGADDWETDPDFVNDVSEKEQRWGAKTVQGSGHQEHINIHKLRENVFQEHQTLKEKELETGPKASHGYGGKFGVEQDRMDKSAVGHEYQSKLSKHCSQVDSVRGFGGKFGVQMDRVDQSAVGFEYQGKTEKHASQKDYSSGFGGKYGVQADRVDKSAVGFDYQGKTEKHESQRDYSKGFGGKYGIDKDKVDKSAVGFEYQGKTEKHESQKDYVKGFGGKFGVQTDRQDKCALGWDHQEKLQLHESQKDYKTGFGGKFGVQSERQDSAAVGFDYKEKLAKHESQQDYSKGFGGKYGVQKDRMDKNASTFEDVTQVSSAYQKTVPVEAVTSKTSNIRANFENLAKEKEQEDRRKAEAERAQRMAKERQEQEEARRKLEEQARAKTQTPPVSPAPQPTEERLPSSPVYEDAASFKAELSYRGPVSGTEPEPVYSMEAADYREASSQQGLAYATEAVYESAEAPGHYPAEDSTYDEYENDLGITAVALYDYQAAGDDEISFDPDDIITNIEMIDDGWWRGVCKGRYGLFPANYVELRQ
UniProt Q16254: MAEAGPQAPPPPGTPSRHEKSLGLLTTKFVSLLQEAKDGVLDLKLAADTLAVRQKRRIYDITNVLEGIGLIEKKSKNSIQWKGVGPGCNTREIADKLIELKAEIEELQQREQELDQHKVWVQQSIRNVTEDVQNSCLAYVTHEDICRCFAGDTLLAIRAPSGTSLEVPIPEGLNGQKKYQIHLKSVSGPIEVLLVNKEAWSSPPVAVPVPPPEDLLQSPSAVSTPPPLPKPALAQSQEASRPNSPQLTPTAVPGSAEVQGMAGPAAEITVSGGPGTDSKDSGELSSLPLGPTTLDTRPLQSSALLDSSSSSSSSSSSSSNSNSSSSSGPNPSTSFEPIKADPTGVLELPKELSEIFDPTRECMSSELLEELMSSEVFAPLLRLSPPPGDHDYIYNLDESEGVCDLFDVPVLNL
UniProt Q15311: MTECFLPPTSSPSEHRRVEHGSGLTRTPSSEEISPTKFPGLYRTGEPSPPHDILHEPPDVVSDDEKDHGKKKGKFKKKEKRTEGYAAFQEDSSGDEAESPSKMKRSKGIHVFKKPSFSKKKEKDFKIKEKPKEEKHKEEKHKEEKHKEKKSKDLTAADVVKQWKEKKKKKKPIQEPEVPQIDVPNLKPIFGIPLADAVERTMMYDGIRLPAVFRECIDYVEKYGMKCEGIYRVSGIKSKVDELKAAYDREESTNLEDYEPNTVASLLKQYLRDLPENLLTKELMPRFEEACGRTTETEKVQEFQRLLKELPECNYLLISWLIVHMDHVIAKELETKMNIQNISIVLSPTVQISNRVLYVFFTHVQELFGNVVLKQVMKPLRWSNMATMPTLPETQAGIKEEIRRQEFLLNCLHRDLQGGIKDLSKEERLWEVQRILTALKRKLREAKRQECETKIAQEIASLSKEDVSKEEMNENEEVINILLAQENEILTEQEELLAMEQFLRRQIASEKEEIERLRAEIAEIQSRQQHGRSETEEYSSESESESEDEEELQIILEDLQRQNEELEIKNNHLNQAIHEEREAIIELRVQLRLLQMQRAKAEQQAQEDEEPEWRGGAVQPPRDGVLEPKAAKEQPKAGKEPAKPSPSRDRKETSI

Compound in this assay: Nc1ncnc2c1ncn2[C@@H]1O[C@H](COP(=O)(O)OP(=O)(O)OP(=O)(O)O)[C@@H](O)[C@H]1O [adenosine triphosphate]
Nature of the assay: NP40-soluble protein abundance relative to vehicle (solubility fold change) (ratio); higher = more soluble protein in presence of ATP. The essentials: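 Each value is a fold change relative to the detergent-processed vehicle, calculated per replicate from vsn-normalised intensities. Jurkat crude lysate received eight concentrations (0.1 to 10 mM) for 10 min at room temperature and 3 min at 37 °C, then was solubilised in 0.8% NP40 with benzonase (60 min, 4 °C). The ultracentrifuged supernatant was TMT-labelled and run by LC-MS/MS in three independent experiments.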

± gives the standard deviation of the averaged measurements. The entries are a selection whose mix differs from that of the whole data set.

For the target PLS1 (UniProt Q14651), the NP40-soluble protein abundance by setting is: (concentration: 1mM) 0.98 ± 0.026; (concentration: 2mM) 0.986 ± 0.033; (concentration: 4mM) 0.962 ± 0.03; (concentration: 6mM) 0.938 ± 0.079; (concentration: 8mM) 0.914 ± 0.019; (concentration: 10mM) 0.962 ± 0.054.
Consider UniProt Q3V6T2 and related entries, for which the NP40-soluble protein abundance runs as follows: (concentration: 1mM) 1.01 ± 0.049; (concentration: 2mM) 1 ± 0.038; (concentration: 4mM) 0.987 ± 0.022; (concentration: 6mM) 1.02 ± 0.05; (concentration: 8mM) 0.984 ± 0.027; (concentration: 10mM) 0.983 ± 0.027.
Regarding UniProt Q14814-4, the NP40-soluble protein abundance (concentration: 1mM) was 0.916 ± 0.077; the NP40-soluble protein abundance (concentration: 2mM) is 0.954 ± 0.024; the NP40-soluble protein abundance (concentration: 4mM) amounted to 0.981 ± 0.034; the NP40-soluble protein abundance (concentration: 6mM) came out at 0.939 ± 0.052; the NP40-soluble protein abundance (concentration: 8mM) was 0.904 ± 0.022; the NP40-soluble protein abundance (concentration: 10mM) was 0.913 ± 0.049.
For CAMK4 (UniProt Q16566), the NP40-soluble protein abundance came to 0.954 ± 0.011 (concentration: 1mM); 0.966 ± 0.013 (concentration: 2mM); 0.933 ± 0.019 (concentration: 4mM); 0.965 ± 0.051 (concentration: 6mM); 0.924 ± 0.022 (concentration: 8mM); 0.952 ± 0.031 (concentration: 10mM).
Turning to UniProt Q16563-2|Q16563, the NP40-soluble protein abundance amounted to 0.93 ± 0.028 (concentration: 1mM); 0.995 ± 0.1 (concentration: 2mM); 0.966 ± 0.025 (concentration: 4mM); 0.894 ± 0.064 (concentration: 6mM); 0.913 ± 0.074 (concentration: 8mM); 0.89 ± 0.083 (concentration: 10mM).
Take BRD3 (UniProt Q15059): the NP40-soluble protein abundance turned out to be 1.04 ± 0.071 (concentration: 1mM); 1.07 ± 0.061 (concentration: 2mM); 1.08 ± 0.045 (concentration: 4mM); 1.14 ± 0.085 (concentration: 6mM); 1.09 ± 0.015 (concentration: 8mM); 1.1 ± 0.052 (concentration: 10mM).
In the case of UniProt Q14558-2|Q14558, the NP40-soluble protein abundance was found to be 1.07 ± 0.14 (concentration: 1mM); 1.02 ± 0.074 (concentration: 2mM); 0.996 ± 0.076 (concentration: 4mM); 0.97 ± 0.086 (concentration: 6mM); 1.02 ± 0.07 (concentration: 8mM); 1.02 ± 0.085 (concentration: 10mM).
Take SF3A1 (UniProt Q15459): the NP40-soluble protein abundance came out at 1.05 ± 0.03 (concentration: 1mM); 1.07 ± 0.022 (concentration: 2mM); 1.05 ± 0.037 (concentration: 4mM); 1.09 ± 0.022 (concentration: 6mM); 1.06 ± 0.05 (concentration: 8mM); 1.09 ± 0.035 (concentration: 10mM).
Turning to CLPP (UniProt Q16740), the NP40-soluble protein abundance by setting is: (concentration: 1mM) 0.957 ± 0.031; (concentration: 2mM) 0.954 ± 0.025; (concentration: 4mM) 0.947 ± 0.025; (concentration: 6mM) 0.954 ± 0.036; (concentration: 8mM) 0.94 ± 0.025; (concentration: 10mM) 0.938 ± 0.015.
Turning to UniProt Q15121 and related entries, the NP40-soluble protein abundance by setting is: (concentration: 1mM) 0.879 ± 0.062; (concentration: 2mM) 0.873 ± 0.053; (concentration: 4mM) 0.891 ± 0.063; (concentration: 6mM) 0.911 ± 0.077; (concentration: 8mM) 0.85 ± 0.029; (concentration: 10mM) 0.804 ± 0.062.
For the target UniProt Q14247 and related entries, the NP40-soluble protein abundance (concentration: 1mM) was 1.01 ± 0.039; the NP40-soluble protein abundance (concentration: 2mM) amounted to 1.04 ± 0.032; the NP40-soluble protein abundance (concentration: 4mM) came to 1.066 ± 0.0018; the NP40-soluble protein abundance (concentration: 6mM) was found to be 1.14 ± 0.041; the NP40-soluble protein abundance (concentration: 8mM) stood at 1.05 ± 0.044; the NP40-soluble protein abundance (concentration: 10mM) worked out at 1.06 ± 0.064.
Regarding E2F4 (UniProt Q16254), the NP40-soluble protein abundance came to 0.955 ± 0.014 (concentration: 1mM); 0.991 ± 0.029 (concentration: 2mM); 1.01 ± 0.054 (concentration: 4mM); 0.999 ± 0.025 (concentration: 6mM); 0.941 ± 0.053 (concentration: 8mM); 0.973 ± 0.021 (concentration: 10mM).
With UniProt Q15370, the NP40-soluble protein abundance is, setting by setting: (concentration: 1mM) 0.92 ± 0.05; (concentration: 2mM) 0.946 ± 0.029; (concentration: 4mM) 0.892 ± 0.029; (concentration: 6mM) 0.947 ± 0.044; (concentration: 8mM) 0.916 ± 0.0084; (concentration: 10mM) 0.876 ± 0.05.
For the target RALBP1 (UniProt Q15311), the NP40-soluble protein abundance worked out at 1.05 ± 0.026 (concentration: 1mM); 1.07 ± 0.026 (concentration: 2mM); 1.1 ± 0.044 (concentration: 4mM); 1.13 ± 0.023 (concentration: 6mM); 1.098 ± 0.0087 (concentration: 8mM); 1.13 ± 0.02 (concentration: 10mM).
